From PMC4932730
No constants are given. Whether binding was seen depends on the method and setting. In cells and extracts the contact can be indirect. Some entries that bind do so weakly or less than the wild type. For part of these data: Sequences can lack the tags named with a protein. Values belong to the substance of their own block, whether it stands above or below them.

By UniProt entry, the sequences of proteins in these tests, tags left out.
UniProt P46937: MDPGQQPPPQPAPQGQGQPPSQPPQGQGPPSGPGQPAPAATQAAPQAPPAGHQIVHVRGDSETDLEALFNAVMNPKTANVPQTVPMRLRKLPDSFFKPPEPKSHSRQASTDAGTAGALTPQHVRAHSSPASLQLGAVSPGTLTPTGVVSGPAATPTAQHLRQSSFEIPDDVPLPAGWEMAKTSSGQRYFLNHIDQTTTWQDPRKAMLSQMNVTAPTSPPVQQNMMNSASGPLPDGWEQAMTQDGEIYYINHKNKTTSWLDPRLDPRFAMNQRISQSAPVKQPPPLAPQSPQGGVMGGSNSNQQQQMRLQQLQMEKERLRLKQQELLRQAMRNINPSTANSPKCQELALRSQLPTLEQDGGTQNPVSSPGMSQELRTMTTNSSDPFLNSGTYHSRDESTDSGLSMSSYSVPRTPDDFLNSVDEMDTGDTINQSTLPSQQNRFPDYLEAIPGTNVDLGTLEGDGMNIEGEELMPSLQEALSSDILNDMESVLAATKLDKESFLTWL
UniProt P62136: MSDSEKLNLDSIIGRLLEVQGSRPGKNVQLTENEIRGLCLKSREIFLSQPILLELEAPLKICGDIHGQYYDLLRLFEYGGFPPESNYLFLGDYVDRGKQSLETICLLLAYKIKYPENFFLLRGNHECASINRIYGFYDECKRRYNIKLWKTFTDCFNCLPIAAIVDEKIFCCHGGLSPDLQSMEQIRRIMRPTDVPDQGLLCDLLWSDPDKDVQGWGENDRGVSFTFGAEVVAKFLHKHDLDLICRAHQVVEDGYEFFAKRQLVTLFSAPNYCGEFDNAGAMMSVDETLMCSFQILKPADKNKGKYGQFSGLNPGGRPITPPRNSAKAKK
UniProt A0A8C0NGY6: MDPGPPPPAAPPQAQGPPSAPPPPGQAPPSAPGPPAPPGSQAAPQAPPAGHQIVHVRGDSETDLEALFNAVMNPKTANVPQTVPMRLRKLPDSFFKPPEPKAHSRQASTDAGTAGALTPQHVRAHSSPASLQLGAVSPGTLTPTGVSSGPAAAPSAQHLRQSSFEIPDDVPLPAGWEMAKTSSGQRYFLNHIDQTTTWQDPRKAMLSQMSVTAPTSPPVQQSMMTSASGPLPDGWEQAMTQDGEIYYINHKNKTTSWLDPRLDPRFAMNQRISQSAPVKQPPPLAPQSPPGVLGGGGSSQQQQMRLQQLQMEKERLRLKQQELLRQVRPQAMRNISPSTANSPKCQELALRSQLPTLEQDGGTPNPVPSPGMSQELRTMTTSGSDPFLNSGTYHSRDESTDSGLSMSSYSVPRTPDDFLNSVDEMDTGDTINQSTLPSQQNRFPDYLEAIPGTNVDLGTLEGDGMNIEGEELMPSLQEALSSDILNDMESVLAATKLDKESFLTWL

Experiments:
[1] = target: hemagglutinin (HA)-tagged YAP (Yes-associated protein) (UniProt P46937); experiment: co-IP; 293T cells transiently transfected with tagged constructs; lysis in RIPA buffer; IP and reverse IP with anti-FLAG or anti-HA antibodies and protein A/G beads overnight at 4 °C; western blot
[2] = target: FLAG-PP1A (protein phosphatase 1, α subunit) (UniProt P62136); experiment: as above
[3] = target: T1, FLAG-LATS1 (large tumor suppressor kinase 1) (UniProt O95835); experiment: as above
T1 sequence: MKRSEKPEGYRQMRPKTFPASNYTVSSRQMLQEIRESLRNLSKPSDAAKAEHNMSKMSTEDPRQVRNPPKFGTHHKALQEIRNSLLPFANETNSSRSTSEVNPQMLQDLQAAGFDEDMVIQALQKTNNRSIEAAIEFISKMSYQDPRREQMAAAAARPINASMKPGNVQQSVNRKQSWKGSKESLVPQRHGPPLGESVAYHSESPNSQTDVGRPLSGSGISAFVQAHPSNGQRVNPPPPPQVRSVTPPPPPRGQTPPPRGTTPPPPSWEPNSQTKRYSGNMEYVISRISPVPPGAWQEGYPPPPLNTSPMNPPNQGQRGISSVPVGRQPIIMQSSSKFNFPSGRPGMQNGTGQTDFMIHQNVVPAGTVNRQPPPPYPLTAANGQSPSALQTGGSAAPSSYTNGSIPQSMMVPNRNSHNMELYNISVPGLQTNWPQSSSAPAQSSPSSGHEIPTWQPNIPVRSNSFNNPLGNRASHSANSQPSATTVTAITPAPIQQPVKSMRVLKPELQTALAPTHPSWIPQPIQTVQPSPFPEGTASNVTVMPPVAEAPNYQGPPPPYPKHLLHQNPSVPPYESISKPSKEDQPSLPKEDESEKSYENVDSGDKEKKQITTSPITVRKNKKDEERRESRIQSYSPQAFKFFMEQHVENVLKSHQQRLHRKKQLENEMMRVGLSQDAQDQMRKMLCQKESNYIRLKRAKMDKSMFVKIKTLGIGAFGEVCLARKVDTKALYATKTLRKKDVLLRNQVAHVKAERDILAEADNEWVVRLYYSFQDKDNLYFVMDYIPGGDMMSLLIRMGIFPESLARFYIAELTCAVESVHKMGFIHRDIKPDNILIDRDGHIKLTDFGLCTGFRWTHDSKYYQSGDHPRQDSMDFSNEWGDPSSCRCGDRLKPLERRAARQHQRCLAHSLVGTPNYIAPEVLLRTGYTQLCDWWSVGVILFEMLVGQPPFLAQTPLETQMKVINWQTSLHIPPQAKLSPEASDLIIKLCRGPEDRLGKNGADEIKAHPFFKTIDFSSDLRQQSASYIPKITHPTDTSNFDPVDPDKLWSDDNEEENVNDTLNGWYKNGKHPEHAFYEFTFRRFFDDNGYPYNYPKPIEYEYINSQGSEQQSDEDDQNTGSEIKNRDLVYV

[4] = target: endogenous YAP of MDCK II cells (dog (endogenous in MDCK II)); experiment: co-IP; nuclear and cytoplasmic fractions of MDCK II cells at low cell density; IP with anti-YAP or anti-LATS1 antibodies; western blot
[5] = target: endogenous YAP of 293T cells (human (endogenous in 293T)) (UniProt P46937); experiment: co-IP; endogenous proteins of 293T cells at low cell density; IP with anti-YAP antibodies (cells transfected with FLAG-Par3) or anti-LATS1 antibodies (cells transfected with siPar3); western blot
[6] = target: T2, endogenous LATS1 of 293T cells (human (endogenous in 293T)) (UniProt O95835); experiment: as above
T2 sequence: T1 sequence

[7] = target: endogenous LATS1 of MDCK II cells (dog (endogenous in MDCK II)); experiment: co-IP; nuclear and cytoplasmic fractions of MDCK II cells at low cell density; IP with anti-YAP or anti-LATS1 antibodies; western blot
[8] = target: FLAG-tagged Par3 (partitioning-defective 3), long form (180 kDa form) (human) (UniProt Q8TEW0); experiment: co-IP; 293T cells transiently transfected with tagged constructs; lysis in RIPA buffer; IP and reverse IP with anti-FLAG or anti-HA antibodies and protein A/G beads overnight at 4 °C; western blot
[9] = target: T3, GST-tagged PDZ3 domain of Par3 (577–694 aa) (human) (UniProt Q8TEW0); experiment: pull-down; 3 μg purified GST fusion protein on glutathione 4B beads incubated with lysate of 293T cells transfected with HA-YAP; lysis buffer 50 mM HEPES pH 7.5, 1% Triton X-100, 150 mM NaCl; washed with HNTG buffer; only the target purified
T3 sequence: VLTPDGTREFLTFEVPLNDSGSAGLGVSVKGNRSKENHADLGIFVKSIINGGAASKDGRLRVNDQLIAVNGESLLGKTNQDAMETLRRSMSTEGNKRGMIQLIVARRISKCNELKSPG

Substance: FLAG-tagged Par3 (partitioning-defective 3), long form (180 kDa form) (from UniProt Q8TEW0 1-1356)
binding [1]: binds

Substance: GFP-Par3 (from UniProt Q8TEW0 1-1356)
binding [2]: binds | binding [3]: binds

Substance: hemagglutinin (HA)-tagged YAP (Yes-associated protein) (from UniProt P46937 1-504)
binding [8]: binds | binding [9]: binds

Continued, values first:

binding [4]: binds
Substance: endogenous LATS1 of MDCK II cells (from UniProt A0A8I3S3J7 1-1127) (enzyme)

binding [5]: binds | binding [6]: binds
Substance: endogenous PP1A of 293T cells (from UniProt P62136 1-330) (enzyme)

binding [7]: binds
Substance: endogenous YAP of MDCK II cells (from UniProt A0A8C0NGY6 1-506)
